Here are results for one molecule from publication PMC1524803.

Protein sequences, listed by entry. Tags and fused reporters are not part of them.
UniProt P14635: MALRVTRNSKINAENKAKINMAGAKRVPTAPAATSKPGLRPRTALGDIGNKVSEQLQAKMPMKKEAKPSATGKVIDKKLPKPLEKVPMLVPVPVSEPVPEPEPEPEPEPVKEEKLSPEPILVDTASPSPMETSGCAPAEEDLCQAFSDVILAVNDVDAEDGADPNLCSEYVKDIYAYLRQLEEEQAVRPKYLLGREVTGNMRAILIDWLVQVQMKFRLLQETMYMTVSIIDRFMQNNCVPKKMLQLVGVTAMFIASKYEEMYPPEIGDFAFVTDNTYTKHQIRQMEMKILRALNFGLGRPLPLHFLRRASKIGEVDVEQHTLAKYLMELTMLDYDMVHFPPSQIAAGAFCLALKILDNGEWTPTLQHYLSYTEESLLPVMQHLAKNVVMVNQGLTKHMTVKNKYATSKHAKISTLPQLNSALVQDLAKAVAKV

Test [1] deals with cyclin B (human (endogenous in HCT116)) (UniProt P14635). Put plainly: condition: only cells arrested in mitosis following an 18-hour treatment with colchicine; co-IP; cyclin B immunoprecipitated with anti-cyclin B1 antibodies (Santa Cruz) from lysate of HCT116 cells arrested in mitosis with colchicine (0.5 ug/ml, 18 hours); blot with anti-hCdc14A (Ab-2).
For test [2] the target is unchanged. Put plainly: co-IP; cyclin B immunoprecipitated with anti-cyclin B1 antibodies (Santa Cruz) from lysate of mock-treated (asynchronized) HCT116 cells; blots with anti-hCdc14A (Ab-2) and anti-Cdk1; Cdk1 was also recovered from cells treated with colchicine.

Results are given in words; binding and its absence hold for the method and conditions named. In cells and extracts the contact can be indirect. Some entries that bind do so weakly or less than the wild type.

B1: hCdc14A (enzyme, UniProt Q9UNH5 1-594)
chain: MAAESGELIGACEFMKDRLYFATLRNRPKSTVNTHYFSIDEELVYENFYADFGPLNLAMVYRYCCKLNKKLKSYSLSRKKIVHYTCFDQRKRANAAFLIGAYAVIYLKKTPEEAYRALLSGSNPPYLPFRDASFGNCTYNLTILDCLQGIRKGLQHGFFDFETFDVDEYEHYERVENGDFNWIVPGKFLAFSGPHPKSKIENGYPLHAPEAYFPYFKKHNVTAVVRLNKKIYEAKRFTDAGFEHYDLFFIDGSTPSDNIVRRFLNICENTEGAIAVHCKAGLGRTGTLIACYVMKHYRFTHAEIIAWIRICRPGSIIGPQQHFLEEKQASLWVQGDIFRSKLKNRPSSEGSINKILSGLDDMSIGGNLSKTQNMERFGEDNLEDDDVEMKNGITQGDKLRALKSQRQPRTSPSCAFRSDDTKGHPRAVSQPFRLSSSLQGSAVTLKTSKMALSPSATAKRINRTSLSSGATVRSFSINSRLASSLGNLNAATDDPENKKTSSSSKAGFTASPFTNLLNGSSQPTTRNYPELNNNQYNRSSNSNGGNLNSPPGPHSAKTEEHTTILRPSYTGLSSSSARFLSRSIPSLQSEYVHY
Turning to B1, the values for the binding result in test [1] and in test [2] were “no binding” and “binds”, respectively.
